Results taken from publication PMC9873282, “Design, synthesis and evaluation of quinoline-O-carbamate derivatives as multifunctional agents for the treatment of Alzheimer’s disease” (Journal of Enzyme Inhibition and Medicinal Chemistry, 2023).

Test system: AlCl3-induced zebrafish AD model
Assay: Behavioural assay in AlCl3-induced zebrafish AD model
Assay type: in vivo

`COc1cc2c(cc1OC)C(=O)C(CC1CCN(Cc3ccccc3)CC1)C2` (stereo not shown) [Donepezil, reference compound] gave a distance moved (alternating dark light stimuli, 8 µM) of 999.4 cm, a velocity (alternating dark light stimuli, donepezil (8 µM)) of 16.7 cm/min and a velocity (dark environment, 8 µM, model 13.8 cm/min, untreated 19.1 cm/min) of 18.5 cm/min. The distance moved (dark environment, 8 µM, model 447.4 cm, untreated 582.9 cm) was 543.8 cm.
